Measurements taken from the supplement of paper PMC3334620.
Over roughly 33,000 sequences, “E-score (-0.5 to 0.5)” has its median near -8e-05; the highest 2% begin near 0.23. This is one part of the list.

Each sequence was assayed against T1, Nrg2 (UniProt P38082) (assay: PBM E-score (8-mer binding enrichment) (E-score (-0.5 to 0.5)); higher = stronger / more preferred TF binding). Details: protein concentration: 100 nM; construct: GST-full length.
T1 sequence: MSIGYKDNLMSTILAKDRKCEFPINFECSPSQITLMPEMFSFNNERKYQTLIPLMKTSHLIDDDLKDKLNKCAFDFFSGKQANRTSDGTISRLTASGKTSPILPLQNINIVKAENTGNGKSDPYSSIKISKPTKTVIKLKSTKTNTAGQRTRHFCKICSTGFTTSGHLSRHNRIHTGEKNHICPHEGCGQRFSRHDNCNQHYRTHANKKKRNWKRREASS
How it was run: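 Each ungapped eight-base word and its reverse complement, pooled, received an E-score from the Universal PBM Analysis Suite. Underlying scans, normalised with masliner, recorded fluorescent anti-GST bound to GST-tagged yeast transcription factors. These were applied at about 100-200 nM to universal all-10-mer Agilent arrays double-stranded by primer extension.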

Sequence | PBM E-score
ATGTAGAC | -0.175
TAGGATGA | 0.0549
GTATTGTA | 0.192
ATAGTTAG | 0.177
AAGCACTA | 0.0443
TATTGGCA | 0.134
CACTAGGA | -0.0863
GCTCCTTA | -0.0501
AACTACGA | 0.077
TCGCCCCA | 0.113
GGAGCGCC | -0.232
CCTCCGAC | -0.285
CCACTACC | -0.145
CTAACACA | 0.161
CCCGAGCC | -0.119
ATGTTAGA | -0.18
CTATTATA | 0.0933
AACAGGAA | -0.118
CATCTGTC | -0.0868
CCCAAATC | -0.0529
CCAGTCCA | -0.209
ATCACTCG | 0.116
CCAGGATC | -0.169
CCTAAAGG | -0.103
GTTTTAGA | -0.0613

Some of the entries above in a different format.
Sequence,PBM E-score
TAGGATGA,0.0549
GTATTGTA,0.192
ATAGTTAG,0.177
AAGCACTA,0.0443
TATTGGCA,0.134

The list continues.

Sequence | PBM E-score
AGCTGCAG | 0.0664
AGACTGCA | -0.239
AGCAGGTC | 0.0487
AGTAAACG | -0.121
CAAATCAC | -0.0248
AGATGCCT | -0.171
CGATGAAA | 0.0448
CATATGGG | 0.123
GCCTCCGC | -0.0858
ACTCGACG | 0.086
CCTCGGAC | 0.135
GCGCCAAA | -0.0258
GTCGCACA | 0.02
CCGATTAA | -0.0323
GCCGTCCC | 0.059
CGTAACCC | 0.0289
AATACTTC | 0.132
CATTGTCC | 0.129
ACATCGTC | 0.1
GGACCCCA | 0.236
ACCTCTAC | 0.119
CGGTGCAG | -0.0852
GAGAGGTA | -0.185
CAACTTTC | 0.163
GTTAACAA | 0.254

Sequence | PBM E-score
AACAGTTC | 0.151
CTCTTTGC | -0.063
CTCGACCC | 0.00862
TATCTGAA | 0.0833
AAGACGGA | 0.0338
ATAGGAGC | -0.0899
AATTTCGA | 0.0453
GAAGAGAA | -0.0264
CTAGACAC | -0.208
GTAGATTA | 0.0978
TGCAGGAA | 0.154
AAAAACCG | -0.124
ATAGGCTA | -0.0769
CCTAATTC | 0.0103
AATTACAA | 0.0791
AGATTTAT | 0.0632
GGGGACGA | -0.0312
AACATAAA | -0.0006
ACAACACG | 0.125
TTAGGCAA | 0.00256
CCATACGG | -0.00757
ACTAGAGG | -0.221
ATCACTCA | 0.106
GATCTAAA | -0.046
GGGAGCGA | -0.09

Sequence | PBM E-score
GACTCGCC | -0.23
GATACTCA | 0.0583
CCGAGTGA | 0.165
ACAATCTA | -0.0761
GGGATGCA | 0.0407
GCTTAGCC | -0.0762
CATCTGGG | -0.164
ACGGCTTA | -0.124
CGCACACC | -0.0413
AACTAGAG | -0.0634
TGACTGAA | -0.024
ATCTACCG | 0.0567
AGACACGA | 0.073
TAACTATA | 0.0211
GCGGCAGC | -0.221
GCCCAGGA | -0.0317
AATCGAAT | 0.0933
GACTAGCA | -0.089
CTTTAGAA | -0.137
ACGTAGGA | -0.0606
ACGCTGTA | 0.00044
CTATAATC | 0.0714
CTGCCGCA | -0.0926
GTCGTCGA | -0.0659
CACCCGAA | 0.154

Sequence | PBM E-score
AATGCCGA | 0.0135
AGCGCCGC | 0.051
ACGAAATG | 0.126
GGCGAAAA | 0.0852
AGCAGAGA | -0.00062
GAAGTCCA | 0.0868
CCATCGCG | 0.096
GCATTTAA | 0.132
CCGAGCAC | -0.0966
AGAAGGCA | -0.112
ACGGTCTC | -0.153
AGTACGCC | -0.171
GGGTAGTA | -0.045
CACATCAG | -0.0629
ATTAGTCG | 0.143
ACTCCCTA | -0.298
CGGCTTAG | -0.149
CCTAACAC | 0.179
GGCAAGCC | -0.226
AAACTTCT | 0.149
AATTTGTG | 0.139
AAGGACAA | 0.0644
CTGGGACA | -0.147
AACGCACT | 0.0421
CCGGCTAA | -0.0925

Sequence | PBM E-score
GTAGCGCA | 0.103
GCGTATTA | -0.0807
TAGCGCAA | 0.16
CAGTGGGG | -0.117
GAGGAAAC | 0.0161
TAAATCGA | 0.151
ACCAGGCC | 0.027
CCCGCTAA | -0.0296
ACCTATAA | -0.112
AACAGATA | 0.00922
ATCGAGTC | -0.0816
CTGCTGTC | -0.0817
CACTAGTA | 0.103
GACTTACA | -0.171
GCGGTGCC | -0.113
GATGCCTA | -0.0949
GATGCCAC | -0.11
GGTGTATA | -0.25
ACCTTAAC | 0.1
AGTTTCGC | 0.0289
AACCGTCC | -0.138
ATTAAGAG | -0.0764
ACCAGCCC | -0.167
ATCCGACA | -0.115
CGTGACAG | -0.0873

Sequence | PBM E-score
CACCACAC | 0.0854
CAACATTG | 0.0622
CCGAAGCA | 0.0405
AGCGCGGG | 0.13
ATCTGCAC | -0.0166
GCTGGATA | 0.101
CATGTAGA | 0.0373
GACTTTCC | -0.161
AGACGATG | -0.0514
CGCGGTGC | 0.00961
AAACAGTG | 0.167
ATCCACAT | 0.0617
AGGGGAGG | 0.00427
CAACTTCG | 0.0959
AATATTTG | 0.185
AGCGTCCA | -0.0536
CTTCCTGA | 0.119
ATACGGGA | -0.00335
CGATTGAC | 0.175
CCTATATA | 0.0688
ACCCGACA | 0.065
ACGCCAGA | -0.102
